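Whole-cell growth test on Mycobacterium tuberculosis, read after 4 days in a medium based on cholesterol and the lipid DPPC; the read-out is not stated. Tested at 50 µM. Higher reads as more growth inhibition (inferred: compounds with an IC50 in retests scored well above the rest). About 69,000 compounds were tested under these conditions; 0.54% (about 370) showed 50% or more at least once.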

Values are the deposited “Percent Effect”, in %.
The controls that fix the scale are not given in the record; negative values are as filed.
Compounds were drawn at random from those tested, without regard to their results.
Two or more numbers in one place are separate tests of the same structure; such repeats can differ widely.

{"compound": "Cc1cc(C)n(NC(=O)c2ccccc2F)c(=O)c1", "effect": -8.101}
{"compound": "Cc1ccc(C2(O)CCN(C(=O)c3cccc(S(C)(=O)=O)c3)CC2)nc1", "effect": 8.177}
{"compound": "Cc1noc(CNC(=O)C2CSCCC(=O)N2)n1", "stereo": "stereo not shown", "effect": 5.921}
{"compound": "[H][C@]12CCCN(S(=O)(=O)c3cccc(F)c3)[C@@]1([H])CN(C(=O)C1CC1)C2", "effect": "-2.967 & 2.378"}
{"compound": "CC(C)Cc1cc(CNC(=O)C2CCCN(C(=O)N(C)C)C2)no1", "stereo": "stereo not shown", "effect": -21.81}
{"compound": "COC[C@]1(O)CCN(Cc2ccc(N(C)C)nc2)CC1(C)C", "effect": 6.239}
{"compound": "Cc1cc(C(=O)NC2=NCCS2)c(C)n1-c1ccccn1", "effect": 1.546}
{"compound": "OCC(CO)Nc1ccc2ccc(Cl)c(Cl)c2n1", "effect": -6.764}
{"compound": "COC(=O)NCC(=O)NC1CC(C)(C)Cc2oc(C)cc21", "stereo": "stereo not shown", "effect": -19.2}
{"compound": "CN(CC(=O)N1CCCC1c1noc(C2CC2)n1)Cc1ccccc1", "stereo": "stereo not shown", "effect": 4.862}
{"compound": "CC(=O)Nn1ccc2c(nnc3c(-c4ccccc4)cnn32)c1=O", "effect": -10.53}
{"compound": "[H][C@@]12OCCC[C@]1([H])N(S(C)(=O)=O)C[C@@H]2NC(=O)c1ccno1", "effect": 4.831}
{"compound": "COc1ccc(CN2CCN(C(C)c3nc(C4CC4)no3)CC2)cc1", "stereo": "stereo not shown", "effect": 6.64}
{"compound": "CN(C)c1ncnc2c1CCN(CC1CCCC1)CC2.O=C(O)C(F)(F)F", "effect": -0.5382}
{"compound": "COc1ncccc1C(=O)N1CCCC(n2ccnc2)C1", "stereo": "stereo not shown", "effect": 19.98}
{"compound": "Cc1ccccc1OCC1CCCN(C(=O)Cc2c[nH]c(=O)[nH]c2=O)C1", "stereo": "stereo not shown", "effect": -8.187}
{"compound": "c1csc(-c2noc(C3CCCOC3)n2)c1", "stereo": "stereo not shown", "effect": 11.43}
{"compound": "O=C(O)C(F)(F)F.[H][C@@]12CCN(c3cccnc3)C[C@]1([H])CN(C(=O)c1ccn(C)n1)C2", "effect": -32.76}
{"compound": "CN(C)S(=O)(=O)N1CCCC1C(=O)N1CCSCC1", "stereo": "stereo not shown", "effect": -12.85}
{"compound": "CC(C)=CCCC1(C)C=Cc2c(cc(C)n(CC(=O)O)c2=O)O1", "stereo": "stereo not shown", "effect": -6.372}
{"compound": "Cc1n[nH]c(C(=O)N2CCCC(C)CC2)c1Br", "stereo": "stereo not shown", "effect": -23.8}
{"compound": "O=C(c1ccnc(NC2CC2)c1)N1CCCC1c1cccc(Br)c1", "stereo": "stereo not shown", "effect": -9.416}
{"compound": "Cc1cccc(N2CCC3(CCN(C(=O)c4cccnc4)CC3)C2)n1.O=C(O)C(F)(F)F.O=C(O)C(F)(F)F", "effect": -1.25}
{"compound": "[H][C@@]12CCN(c3ncccn3)[C@]1([H])CC[C@H](C(=O)N1CCCCO1)O2", "effect": 9.286}
{"compound": "CSc1nccc(N2CCC(NCCN3CCOCC3)CC2)n1", "effect": 1.265}
{"compound": "COc1ccc(CC(=O)N2CCCC(n3nc(C)cc3C)C2)cc1F", "stereo": "stereo not shown", "effect": -1.523}
{"compound": "CN1CC2(CCNCC2)CC1C(=O)NCCCNc1cccnc1", "stereo": "stereo not shown", "effect": 4.838}
{"compound": "Cc1ccccc1OCCCC(=O)NCC1CN(C)CCO1", "stereo": "stereo not shown", "effect": 12.64}
{"compound": "COc1c(CNCc2cccc(Cn3cncn3)c2)c(C)nn1C", "effect": 1.988}
{"compound": "CC(C)(CCS(C)(=O)=O)CNC(=O)NC1CCCCC1(C)C", "stereo": "stereo not shown", "effect": -25.51}
{"compound": "COc1ccc(-c2cccc(-c3ccn(CC4COCCO4)n3)c2)nn1", "stereo": "stereo not shown", "effect": 14.92}
{"compound": "Cc1nc2c(c(N3CCC(CCn4cccn4)CC3)n1)CCNCC2", "effect": "11.25 & 2.319"}
{"compound": "CN(C)C(C(=O)NCC1(C)COC1)c1cccc(F)c1", "stereo": "stereo not shown", "effect": 3.157}
{"compound": "Cc1nc(Nc2nccs2)cc(C2CN(C(C)C)C2)n1", "effect": -7.914}
{"compound": "O=C1CC(N(C(=O)c2ccc(F)c(C(F)(F)F)c2)C2CC2)C(=O)N1", "stereo": "stereo not shown", "effect": -4.782}
{"compound": "O=C(NC1CCCN(CCCc2ccccc2)C1)c1ccc(Cl)s1", "stereo": "stereo not shown", "effect": 73.35}
{"compound": "Cc1csc(N2CCN(C(=O)Cc3cccs3)CC2)n1", "effect": -4.23}

Measurements from “University of Dundee, Small-Polar-MMV Screening Library” (2021), ChEMBL document CHEMBL3988442.